Some of the results follow. Single values are uncertain, as repeats are few or missing. Some results are limits rather than exact numbers.

This assay deals with Plasmodium berghei sporozoites. In words: residual sporozoite gliding motility relative to DMSO control; higher = less inhibition of motility. As to conditions: 10 µM; incubation time 30 min.
`COc1ccc(-c2c(C)nn3c(N)c(C#N)cnc23)cc1OC`: the “residual sporozoite gliding motility” value was more than 50%.

For `CCOC(=O)c1c(C)n(-c2ccccc2)c2ccc(OC(=O)c3cc(OC)c(OC)c(OC)c3)cc12`, the “residual sporozoite gliding motility” value was more than 50%.

For `CSc1ccccc1C(=O)Nc1nc(-c2ccccn2)cs1`, the “residual sporozoite gliding motility” value is more than 50%.

For `COc1ccccc1N1C(=N)SC(=Cc2ccc(OCc3ccccc3F)cc2)C1=O`, the “residual sporozoite gliding motility” value was more than 50%.

In the case of `CCN(CC)CCNc1ncnc2c1[nH]c1ccc(Cl)cc12`, the “residual sporozoite gliding motility” value was more than 50%.

As for `COc1ccc(C2C(C(=O)Nc3cccc(OC)c3)c3ccccc3C(=O)N2C2CCCCC2)cc1` (stereo unspecified), the “residual sporozoite gliding motility” value was more than 50%.

On to `N#Cc1nc(Cc2cccc3ccccc23)oc1N1CCN(C(c2ccccc2)c2ccccc2)CC1`, for which the “residual sporozoite gliding motility” value is more than 50%.

For the compound `Cc1cc(Nc2ccc(Cl)cc2)n2nc(C(F)(F)F)nc2n1`, the “residual sporozoite gliding motility” value is more than 50%.

With `Cc1sc(NC(=O)c2ccccc2)c(C(c2cccs2)N2CCN(c3ccccc3)CC2)c1C` (stereo unspecified), the “residual sporozoite gliding motility” value is more than 50%.

With `COc1cccc(NC(=O)Cn2c(C)c(C#N)c3ccccc32)c1`, the “residual sporozoite gliding motility” value was more than 50%.

Turning to `Clc1cc(Br)ccc1-c1ccc(CNCC2CCNCC2)o1`, the “residual sporozoite gliding motility” value was more than 50%.

Turning to `Cc1cc(C=C2SC(=Nc3ccccc3)N(C3CCCC3)C2=O)c(C)n1-c1ccc(Cl)cc1`, the “residual sporozoite gliding motility” value was more than 50%.

As for `CC1=C(CC(=O)c2cccc([N+](=O)[O-])c2)C(=O)c2ccccc2C1=O`, the “residual sporozoite gliding motility” value is more than 50%.

On to `c1ccc(/C2=N/c3ccccc3/N=C(/c3ccccc3)c3ccccc32)cc1`, for which the “residual sporozoite gliding motility” value was more than 50%.

In the case of `N=c1n(CCN2CCCCC2)c2ccccc2n1CC(O)c1cccc(Br)c1` (stereo unspecified), the “residual sporozoite gliding motility” value is more than 50%.

As to `CC1CCCCN1CCCNC(=O)c1ccc2c(c1)sc1nc(-c3ccc(F)cc3)cn12` (stereo unspecified), the “residual sporozoite gliding motility” value is more than 50%.

In the case of `CCOc1cccc2sc(N(Cc3cccnc3)C(=O)C3CCCCC3)nc12`, the “residual sporozoite gliding motility” value is more than 50%.

As to `Cc1ccc(Cn2c(N3CCC(C(=O)NCc4cccs4)CC3)nc3ccccc32)cc1`, the “residual sporozoite gliding motility” value was more than 50%.

In the case of `CCOC(=O)C1=C(C)N=c2sc(=Cc3ccccc3O)c(=O)n2C1c1ccc(OC)c2ccccc12` (stereo unspecified), the “residual sporozoite gliding motility” value is more than 50%.

For the compound `Cc1[nH]c(-c2ccc(F)cc2)cc1C(=O)NC1CCN(Cc2ccccc2)CC1`, the “residual sporozoite gliding motility” value is more than 50%.

For the compound `O=C(NC1CCN(Cc2ccccc2)CC1)c1cc(-c2ccncc2)nc2ccc(Cl)cc12`, the “residual sporozoite gliding motility” value was more than 50%.

Turning to `CC(C)(C)c1ccc(C(=O)Nc2nc3ccccc3s2)cc1`, the “residual sporozoite gliding motility” value was more than 50%.

Regarding `COc1cc(OC)cc(C(=O)Nc2ccc(-c3nc4ccccc4[nH]3)cc2)c1`, the “residual sporozoite gliding motility” value was more than 50%.

In the case of `Oc1ccccc1CN1CCC2(CCCN(Cc3ccccc3F)C2)C1` (stereo unspecified), the “residual sporozoite gliding motility” value is more than 50%.

On to `COc1ccc(C2NCCc3c2[nH]c2ccccc32)cc1CN1CCN(c2ccc(F)cc2)CC1` (stereo unspecified), for which the “residual sporozoite gliding motility” value is more than 50%.

As for `CC(C)(C)CC(C)(C)NCC(O)COc1ccc2c(c1)CCC2` (stereo unspecified), the “residual sporozoite gliding motility” value is more than 50%.

For the compound `CCN1CCN(Cc2ccc(NC(=O)c3cc4ccc5cccnc5c4[nH]3)cc2)CC1`, the “residual sporozoite gliding motility” value was more than 50%.

In the case of `Cc1sc(NC(=O)c2ccco2)c(C(c2cccnc2)N2CCC(Cc3ccccc3)CC2)c1C` (stereo unspecified), the “residual sporozoite gliding motility” value was more than 50%.

Consider `CCOc1cc2c(cc1OCC)C(c1cc(C)c(O)c(C)c1)NCC2` (stereo unspecified), for which the “residual sporozoite gliding motility” value was more than 50%.

In the case of `COc1ccc(C(O)(CCC(C)C)C(CN2CCOCC2)c2ccc(Cl)cc2)cc1` (stereo unspecified), the “residual sporozoite gliding motility” value was more than 50%.

`CCOc1ccc(Nc2c3ccccc3nc3ccccc23)cc1`: the “residual sporozoite gliding motility” value is more than 50%.

Take `Cc1cc(Nc2ccc(C)c(Cl)c2)n2nc(C(F)(F)F)nc2n1`: the “residual sporozoite gliding motility” value was more than 50%.

For the compound `Cc1ccc(OCCCCCCNCCO)c(C)c1`, the “residual sporozoite gliding motility” value was more than 50%.

`CCn1nc(-c2ccc(C(=O)OC)cc2)nc2c(=O)n(C)c(=O)nc1-2`: the “residual sporozoite gliding motility” value is more than 50%.

For the compound `CCN(CC)CCNc1ccnc2cc3ccccc3cc12`, the “residual sporozoite gliding motility” value was more than 50%.

Take `O=C(Nc1ccc(N2CCCCC2)c(Cl)c1)c1ccc(Br)o1`: the “residual sporozoite gliding motility” value is more than 50%.

Values taken from the supplement of paper PMC6119338.
